The other results are listed elsewhere or left out. These are further read-outs of the screen, such as a control signal, another cell line or another target. No call is given for them. The list favours compounds with an active or inconclusive main result. Words in brackets tell the shape of the fitted curve; partial curves, single points and poor fits give uncertain potencies.
Experiment: qHTS Assay to Find Inhibitors of Chronic Active B-Cell Receptor Signaling
Details: ABC-DLBCL IkBa-CBG/CBR reporter, luminescence ratio (green luciferase fused to IkBa over red control in TMD8 lymphoma cells), 4 h
In short: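 TMD8 ABC-DLBCL cells carrying doxycycline-inducible green luciferase fused to IkappaBalpha plus unfused red luciferase were exposed to compounds (up to 46 uM) for 4 hrs at 37C. Activity came from the overlap-corrected green/red luminescence ratio.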

[1] = measured here: CBR red luminescence, cell number
[2] = measured here: IkBa-CBG green luminescence

| Structure (SMILES) | AC50 [1] | AC50 [2] |
| --- | --- | --- |
| CSc1cccc(NC(=O)c2cccc3cccnc23)c1 | 5.01 µM [rising, partial curve, poor fit] | – |
| COc1ccc(NC(=O)c2cc3ccccc3o2)c(OC)c1 | 7.08 µM [falling, partial curve, poor fit] | – |
| Cc1ccc(NS(=O)(=O)c2ccc(NC(=O)C3CC3)cc2)c(C)c1 | 15.8 µM [falling, single point] | – |
| Cn1ccnc1SCC(=O)Nc1cccc(O)c1 | 25.9 µM [rising, single point] | – |
| CCN(CCO)C(=S)Nc1cc(C(=O)OC)ccc1C(=O)OC | 14.6 µM [rising, partial curve, poor fit] | – |
| Cc1ccc(C2(C)NC(=O)N(CC(=O)NNC(=O)c3ccccc3F)C2=O)cc1 (centres undefined) | 6.51 µM [rising, single point] | – |
| CC/C(=C\c1oc2cc3ccccc3cc2[n+]1CC)Nc1ccccc1 | 22.4 µM [falling, single point] | 25.1 µM [rising, partial curve, poor fit] |
| O=C(N/N=C/c1ccc(F)cc1)c1ccc(Br)cc1 | 35.5 µM [falling, single point] | – |
| CCC(=O)c1ccc(N2CCCC2)c(F)c1 | 29.1 µM [rising, single point] | – |
| COc1cc(Cl)c(C)cc1NC(=O)CC1CCCC1 | 3.16 µM [rising, full curve, poor fit] | – |
| COc1cccc(/C=C/C(=O)OCC(=O)Nc2nnc(-c3ccccc3)o2)c1 | 8.2 µM [rising, partial curve] | – |
| CCOC(=O)c1sc(NC(=O)CN2C(=O)NC3(CC(C)CC(C)(C)C3)C2=O)cc1C (centres undefined) | 2.31 µM [falling, full curve] | – |
| CN1CCN(c2ccc(Nc3ccnc4cc(Cl)ccc34)cc2)CC1 | 11.2 µM [falling, single point] | – |
| CCc1cc(SC#N)cc(CC)c1NC(=O)CCl | 29.1 µM [falling, single point] | 4.11 µM [falling, single point] |
| C/C(=N/NC(=O)c1cc(C)[nH]n1)c1ccncc1 | 35.5 µM [falling, single point] | – |
| COc1ccc(CNC(=O)COC(=O)CN2C(=O)C3CC=CCC3C2=O)cc1 (centres undefined) | 29.1 µM [rising, single point] | – |
| COc1ccc(NS(=O)(=O)c2ccc3nc(COc4cccc5ccccc45)[nH]c3c2)cc1 | 29.1 µM [falling, single point] | – |
| CNC(=S)N/N=C/c1cc(Br)cc(Br)c1O | 0.82 µM [falling, full curve, poor fit] | – |
| CCOC(=O)C1CCN(C(=O)Cc2cccs2)CC1 | 3.66 µM [falling, single point] | – |
| CCOc1ccc(NC(=O)Nc2cc(C)ccc2OC)cc1 | 16.4 µM [rising, partial curve, poor fit] | – |
| Cc1nc(N2CCN(c3ccccc3)CC2)nc2c1C(=O)CC(c1ccccc1)C2 (centres undefined) | 12.6 µM [rising, single point] | – |
| O=C(NCC(c1ccco1)N1CCOCC1)c1ccc(F)cc1 (centres undefined) | 2.91 µM [falling, partial curve, poor fit] | – |

Reformatted bar-delimited: entries from further up.
Structure (SMILES) | AC50 [1] | AC50 [2]
COc1ccc(NC(=O)c2cc3ccccc3o2)c(OC)c1 | 7.08 µM [falling, partial curve, poor fit] | –
Cc1ccc(NS(=O)(=O)c2ccc(NC(=O)C3CC3)cc2)c(C)c1 | 15.8 µM [falling, single point] | –
Cn1ccnc1SCC(=O)Nc1cccc(O)c1 | 25.9 µM [rising, single point] | –

Carrying on.

| Structure (SMILES) | AC50 [1] | AC50 [2] |
| --- | --- | --- |
| Cc1cccc(C)c1OCCOC(=O)c1n[nH]c2ccccc12 | 25.1 µM [rising, single point] | – |
| O=C(Nc1cccc(S(=O)(=O)N2CCCC2)c1)c1ccc2c(c1)OCO2 | – | 18.4 µM [rising, partial curve, poor fit] |
| CCCC(=O)Nc1cc(-c2nn(C)c(=O)c3ccccc23)ccc1N1CCOCC1 | 4.61 µM [rising, partial curve, poor fit] | – |
| CC(=O)c1[nH]c(C)c(C(C)=O)c1C | 11.2 µM [falling, single point] | – |
| O=C(COC(=O)CCc1ccccc1)Nc1cc([N+](=O)[O-])ccc1F | 15.8 µM [falling, single point] | – |
| Cn1nc([N+](=O)[O-])nc1Sc1nnnn1-c1cccc(C(=O)O)c1 | 6.31 µM [falling, single point] | – |
| O=C(NC(=S)Nc1cccc(Cl)c1Cl)C1CC1 | 22.4 µM [falling, single point] | – |
| Cc1ccc2[nH]c(=O)c3cc(C(=O)N4CCN(C(=O)c5ccco5)CC4)sc3c2c1 | 6.51 µM [rising, single point] | – |
| C(=N\NC1=Nc2cccc3cccc1c23)/c1ccccn1 | 7.08 µM [falling, partial curve, poor fit] | 3.55 µM [falling, single point] |
| COc1ccc(C2=CC(c3cc(Br)ccc3F)n3c(nc4ccccc43)N2)cc1 (centres undefined) | 3.16 µM [falling, full curve, poor fit] | – |
| O=C(Nc1ccc(N2CCCCC2)cc1)c1ccccn1 | 0.794 µM [falling, full curve] | – |
| CCC1CCCCN1C(=O)Nc1cccc(NC(=O)N2CCCCC2CC)c1 (centres undefined) | 9.2 µM [falling, partial curve] | – |
| COc1ccc(-c2cc(C(=O)NCc3cn(C)nc3C)c3ccccc3n2)cc1OC | 10.3 µM [rising, partial curve] | – |
| Cc1ccc2nc(SCC3CCCCO3)[nH]c2c1 (centres undefined) | 0.891 µM [rising, full curve] | – |
| O=C(CN1CCCCC1)Nc1ccccc1-c1ccccc1 | 20.6 µM [falling, single point] | – |
| O=C(/C=C/c1ccccc1)NCC1(c2ccccc2)CCOCC1 | 1.58 µM [rising, partial curve, poor fit] | – |
| Cc1cc(NC(=O)CSc2nc3ccccc3[nH]2)no1 | 5.17 µM [falling, full curve] | – |
| COc1cc(NC(=O)/C=C/c2ccccc2[N+](=O)[O-])cc(OC)c1 | 16.4 µM [falling, single point] | – |
| O=C(CSc1cn(CCNC(=O)c2ccccc2)c2ccccc12)NCc1ccco1 | 10.3 µM [falling, single point] | – |
| CCCCOC(=O)c1cc(=O)[nH]c2ccccc12 | 0.651 µM [rising, partial curve, poor fit] | – |
| C/C(Cl)=C\Cn1c(O)c(N=NC(N)=S)c2ccccc21 | – | 7.08 µM [falling, partial curve, poor fit] |
| COc1ccc2ccccc2c1CN1CCN(C(=O)c2ccco2)CC1 | 5.62 µM [rising, full curve, poor fit] | – |

| Structure (SMILES) | AC50 [1] | AC50 [2] |
| --- | --- | --- |
| CCCc1cc(=O)oc2c(C)c(O[C@@H]3O[C@H](CO)[C@@H](O)[C@H](O)[C@H]3O)ccc12 | 35.5 µM [falling, single point] | – |
| O=C(CSc1nnc(CCCO)n1-c1ccccc1)NCCc1ccccc1 | 0.731 µM [falling, full curve, poor fit] | – |
| CC12CCC(C(=O)NCc3ccccc3)(OC1=O)C2(C)C (centres undefined) | 29.1 µM [rising, single point] | – |
| COc1ccc(/C=N/NC(=O)c2sc(C)nc2C)cc1 | 7.94 µM [falling, partial curve] | – |
| CCOC(=S)SCC(=O)N1CCc2cc(OC)c(OC)cc2C1C1C(=O)CC(C)(C)CC1=O (centres undefined) | 29.1 µM [falling, single point] | – |
| O=C(COC(=O)C1=COCCO1)Nc1cc(Cl)c(Cl)cc1Cl | 0.651 µM [rising, full curve, poor fit] | – |
| COCC(=O)OCC(=O)Nc1cc(C(C)(C)C)nn1-c1ccccc1 | 29.1 µM [falling, partial curve, poor fit] | – |
| NS(=O)(=O)c1ccc2nc(NC(=O)Nc3ccc(F)cc3)sc2c1 | 22.4 µM [falling, single point] | – |
| CC1CC(C)CN(CCCNC(=O)Cn2ncn3cccc3c2=O)C1 (centres undefined) | 11.6 µM [rising, partial curve, poor fit] | – |
| CC(=O)c1ccc(NC(=O)C(C)N(C)CC(=O)Nc2ccccc2Cl)cc1 (centres undefined) | 14.1 µM [rising, partial curve, poor fit] | – |
| Cc1cc(C)c(C#N)c(SCC(O)COc2ccc(Br)cc2)n1 (centres undefined) | 7.08 µM [rising, full curve, poor fit] | – |
| C/C(=N\NC(=O)c1c(Cl)c(C)nn1C)c1ccc(NC(=O)c2ccncc2)cc1 | 29.1 µM [falling, single point] | 6.51 µM [falling, partial curve, poor fit] |
| Fc1ccc(CSc2nnc(-c3cccs3)o2)cc1 | 0.891 µM [rising, partial curve, poor fit] | – |
| C=CCC(C)(NCc1ccccc1)c1ccc(C)cc1 (centres undefined) | 2.06 µM [rising, full curve, poor fit] | – |
| COc1cc(C2CC(=O)Nc3ccccc3S2)cc(OC)c1OC (centres undefined) | 0.0058 µM [rising, full curve, poor fit] | – |
| CCc1ccc(NC(=O)CN(C)S(=O)(=O)c2ccc3[nH]c(=O)oc3c2)cc1 | 8.91 µM [rising, partial curve, poor fit] | – |
| COc1ccc(C(=O)NNC(=O)c2cccc(F)c2)cc1 | 3.55 µM [falling, partial curve] | – |
| CSc1ccc(/C=C/C(=O)NC(=O)c2ccccc2O)cc1 | 7.08 µM [falling, full curve] | – |
| COc1ccc(CC(=O)Nc2cccc(C(=O)NN3C(=O)c4ccccc4C3=O)c2C)cc1 | 29.1 µM [rising, partial curve, poor fit] | – |
| C=CCOc1ccc(/C=N\NC(N)=S)cc1 | 7.08 µM [falling, partial curve, poor fit] | – |
| CCOc1cc(/C=N/N=C/c2ccc(O)c(OCC)c2)ccc1O | 5.62 µM [rising, single point] | – |

From PubChem BioAssay AID493014 (National Center for Advancing Translational Sciences (NCATS), 2011)
